Reference: PubChem BioAssay AID652272 (Drosophila RNAi Screening Center, 2013)

Aim: 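Finding fly genes that regulate Hedgehog signal transduction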 (primary screen)
Cell system: Drosophila clone 8 (Cl8) cells
Reagent: long dsRNA against Drosophila genes
Measurement: 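Plate reader light from a firefly reporter under a ptc promoter fragment that responds to Hedgehog, with Renilla light as transfection reference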
Reading the numbers: firefly Hh reporter signal: higher = more ptc reporter light; Renilla reference signal: higher = more Renilla control light
Hit rule: 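Called a hit if the two-replicate mean z-score lies below -2 or above +3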
Calls: active = hit: reporter lowered or raised; inactive = not a hit
In all, the deposit lists about 21,000 reagents; below is an unselected part of those with a known target gene and a result. In the full data, 503 (2.4%) are marked active. 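Raw plate light values, not normalised; calls rest on replicate z-scores that were not deposited; hits include reporter decreases as well as increases.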 Not given: the amount of reagent, the time to read-out.

With knock-down of CG18302 [DRSC02663], the record shows firefly Hh reporter signal, replicate 1 = 76771; firefly Hh reporter signal, replicate 2 = 57984; Renilla reference signal, replicate 1 = 2248; Renilla reference signal, replicate 2 = 5572; inactive. For gfzf [DRSC12506], the entry reads firefly Hh reporter signal, replicate 1 = 1.22e5; firefly Hh reporter signal, replicate 2 = 85235; Renilla reference signal, replicate 1 = 4560; Renilla reference signal, replicate 2 = 3040; inactive. CG7011 [DRSC09347] scored firefly Hh reporter signal, replicate 1 = 3.06e5; Renilla reference signal, replicate 1 = 7078; inactive. Against CG42712 (retired record) [DRSC01038], the entry reads firefly Hh reporter signal, replicate 1 = 4.39e5; firefly Hh reporter signal, replicate 2 = 1.78e5; Renilla reference signal, replicate 1 = 20907; Renilla reference signal, replicate 2 = 6437; inactive. With knock-down of CG13739 [DRSC06410], the record shows firefly Hh reporter signal, replicate 1 = 78266; firefly Hh reporter signal, replicate 2 = 26408; Renilla reference signal, replicate 1 = 1856; Renilla reference signal, replicate 2 = 2043; inactive. betaTub65B [DRSC11393] scored firefly Hh reporter signal, replicate 1 = 88489; firefly Hh reporter signal, replicate 2 = 94439; Renilla reference signal, replicate 1 = 9421; Renilla reference signal, replicate 2 = 6320; inactive.

Against l(2)k05819 [DRSC00826] the deposit lists firefly Hh reporter signal, replicate 1 = 1.01e5; firefly Hh reporter signal, replicate 2 = 74647; Renilla reference signal, replicate 1 = 4592; Renilla reference signal, replicate 2 = 3155; inactive. After knock-down of CG31141 [DRSC13646], the screen gave firefly Hh reporter signal, replicate 1 = 49156; firefly Hh reporter signal, replicate 2 = 2.52e5; Renilla reference signal, replicate 1 = 12278; Renilla reference signal, replicate 2 = 5911; inactive. Depletion of CG31200 [DRSC15285] came out at: firefly Hh reporter signal, replicate 1 = 5.12e5; firefly Hh reporter signal, replicate 2 = 76802; Renilla reference signal, replicate 1 = 27309; Renilla reference signal, replicate 2 = 5419; inactive. Depletion of CG14635 [DRSC17945] resulted in: firefly Hh reporter signal, replicate 1 = 77597; firefly Hh reporter signal, replicate 2 = 1.74e5; Renilla reference signal, replicate 1 = 1904; Renilla reference signal, replicate 2 = 6649; inactive. After knock-down of CheB38a [DRSC03205] the results were firefly Hh reporter signal, replicate 1 = 80278; firefly Hh reporter signal, replicate 2 = 5.71e5; firefly Hh reporter signal, replicate 3 = 32391; Renilla reference signal, replicate 1 = 2736; Renilla reference signal, replicate 2 = 33139; inactive. Against lectin-29Ca [DRSC02635], the values are firefly Hh reporter signal, replicate 1 = 70941; firefly Hh reporter signal, replicate 2 = 54817; Renilla reference signal, replicate 1 = 2408; Renilla reference signal, replicate 2 = 5264; inactive.

For CG4553 [DRSC15595], the entry reads firefly Hh reporter signal, replicate 1 = 7.02e5; firefly Hh reporter signal, replicate 2 = 90555; Renilla reference signal, replicate 1 = 35673; Renilla reference signal, replicate 2 = 546; inactive. For Jhbp12 [DRSC14621], the values are firefly Hh reporter signal, replicate 1 = 5.07e5; firefly Hh reporter signal, replicate 2 = 82058; Renilla reference signal, replicate 1 = 25501; Renilla reference signal, replicate 2 = 2534; inactive.

Already shown: an excerpt of the list.
betaTub65B [DRSC11393] | firefly Hh reporter signal, replicate 1: 88489; firefly Hh reporter signal, replicate 2: 94439; Renilla reference signal, replicate 1: 9421; Renilla reference signal, replicate 2: 6320; activity call: inactive
l(2)k05819 [DRSC00826] | firefly Hh reporter signal, replicate 1: 1.01e5; firefly Hh reporter signal, replicate 2: 74647; Renilla reference signal, replicate 1: 4592; Renilla reference signal, replicate 2: 3155; activity call: inactive

Next results follow.
Duox [DRSC00571] showed firefly Hh reporter signal, replicate 1 = 1.43e5; firefly Hh reporter signal, replicate 2 = 1.11e5; Renilla reference signal, replicate 1 = 3141; Renilla reference signal, replicate 2 = 2987; inactive. Silencing of Upf1 [DRSC19667] gave: firefly Hh reporter signal, replicate 1 = 1.27e5; firefly Hh reporter signal, replicate 2 = 1.52e5; Renilla reference signal, replicate 1 = 1376; Renilla reference signal, replicate 2 = 1656; active. Silencing of mTor [DRSC02811] gave: firefly Hh reporter signal, replicate 1 = 71763; firefly Hh reporter signal, replicate 2 = 42246; Renilla reference signal, replicate 1 = 2681; Renilla reference signal, replicate 2 = 1936; inactive. Knock-down of uex [DRSC20784] gave: firefly Hh reporter signal, replicate 1 = 7.77e5; firefly Hh reporter signal, replicate 2 = 2.05e5; Renilla reference signal, replicate 1 = 39691; Renilla reference signal, replicate 2 = 4567; inactive. For uex [DRSC20786], the values are firefly Hh reporter signal, replicate 1 = 5.72e5; firefly Hh reporter signal, replicate 2 = 1.71e5; Renilla reference signal, replicate 1 = 31296; Renilla reference signal, replicate 2 = 3920; inactive. After knock-down of ppk28 [DRSC19919] the results were firefly Hh reporter signal, replicate 1 = 82203; firefly Hh reporter signal, replicate 2 = 2.09e5; Renilla reference signal, replicate 1 = 2419; Renilla reference signal, replicate 2 = 7636; inactive.

Knock-down of CG15208 [DRSC19654] resulted in: firefly Hh reporter signal, replicate 1 = 70368; firefly Hh reporter signal, replicate 2 = 73376; Renilla reference signal, replicate 1 = 1641; Renilla reference signal, replicate 2 = 1594; inactive.
